Measurements as given in paper doi:10.1101/2020.07.06.189761.

Legend:
[1] = target: T1, UM-Pif1 (unmodified Pif1) (Saccharomyces cerevisiae) (UniProt P07271); assay: EMSA; details: 100 and 200 nM protein, 5 nM DNA, affinity differs from AC-Pif1, confirming BLI
T1 sequence (looked up, limits assumed): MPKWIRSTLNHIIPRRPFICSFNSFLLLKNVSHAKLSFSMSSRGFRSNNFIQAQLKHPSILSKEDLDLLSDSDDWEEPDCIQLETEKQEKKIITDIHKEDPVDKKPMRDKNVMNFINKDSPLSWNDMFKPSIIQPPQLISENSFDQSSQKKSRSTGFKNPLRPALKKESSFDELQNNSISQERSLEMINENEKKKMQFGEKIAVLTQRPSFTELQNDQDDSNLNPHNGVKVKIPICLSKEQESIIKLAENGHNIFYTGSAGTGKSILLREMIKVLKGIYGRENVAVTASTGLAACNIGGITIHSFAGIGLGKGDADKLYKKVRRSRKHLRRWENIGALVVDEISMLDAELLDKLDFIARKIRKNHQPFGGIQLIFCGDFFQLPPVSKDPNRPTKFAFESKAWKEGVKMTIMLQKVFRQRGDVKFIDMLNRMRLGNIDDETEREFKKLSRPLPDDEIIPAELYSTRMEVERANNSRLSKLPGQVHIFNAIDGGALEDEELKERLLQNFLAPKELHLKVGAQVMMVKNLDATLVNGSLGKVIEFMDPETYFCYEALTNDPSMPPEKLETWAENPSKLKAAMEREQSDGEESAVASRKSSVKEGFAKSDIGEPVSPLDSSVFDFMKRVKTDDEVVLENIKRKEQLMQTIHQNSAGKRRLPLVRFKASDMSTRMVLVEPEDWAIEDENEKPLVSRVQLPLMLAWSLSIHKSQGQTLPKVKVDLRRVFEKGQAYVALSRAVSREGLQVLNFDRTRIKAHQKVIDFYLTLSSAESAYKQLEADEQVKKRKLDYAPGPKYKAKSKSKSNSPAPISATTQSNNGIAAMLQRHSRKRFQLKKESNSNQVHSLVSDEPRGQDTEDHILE

[2] = target: AC-Pif1ΔN (acetylated) del1-233 (Saccharomyces cerevisiae) (UniProt P07271); assay: BLI; details: acetylated by Piccolo NuA4; residues 234-859
[3] = target: AC-Pif1 (acetylated Pif1) (Saccharomyces cerevisiae) (UniProt P07271); assay: BLI; details: acetylated by Piccolo NuA4

“TTTTTTTTTTTTTTTTTTTTTTTTTGTGTCACTCACATAGCGTTC / GAACGCTATGTGAGTGACACTTTTTTTTTTTTTTTTTTTTTTTTT [DNA fork (T1/D1)]”: binds [1].
“TTTTTTTTTTTTTTTTTTTTTTTTTGTGTCACTCACATAGCGTTC [T1 45-nt ssDNA]” gave a Kd [2] of 15.2 nM and a Kd [3] of 7.2 nM.

Construct, isoform or probe ends are uncertain for at least one entry. For part of these data: At least one verdict rests on a figure or table, not on a statement of the authors. For part of these data: Tags and fusion partners may be left off the protein sequences shown.
